The values that follow come from PubChem BioAssay AID493014 (National Center for Advancing Translational Sciences (NCATS), 2011).

The test can be described thus: qHTS Assay to Find Inhibitors of Chronic Active B-Cell Receptor Signaling. The settings on record: ABC-DLBCL IkBa-CBG/CBR reporter, luminescence ratio (green luciferase fused to IkBa over red control in TMD8 lymphoma cells), 4 h. In short, it runs like this: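 Concentration-response series (up to 46 uM) were applied to TMD8 dual-reporter cells for 4 h at 37C with doxycycline. Green/red ratio, after filter-overlap correction, defined %Activity; red signal alone was normalised to basal cells and zero luminescence.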
(Quantitative high-throughput screening tests each substance at several concentrations.)

Where [1] appears, read: measured here: CBR red luminescence, cell number.
The mark [2] stands for this setting: measured here: IkBa-CBG green luminescence.

Each structure is given as a SMILES string. This is one part of the list. Shown are side measurements of this screen, not its main read-out; they come without a call. The list favours compounds with an active or inconclusive main result. Words in brackets tell the shape of the fitted curve; partial curves, single points and poor fits give uncertain potencies.

The term AC50 denotes the midpoint of the concentration-response curve, whichever way the signal moves. In the case of `COc1ccc(CCCc2nc3ccccc3[nH]2)cc1`, under setting [1], the AC50 is 1.12 µM [rising, partial curve, poor fit]. The same measure, in the same setting: next, `NCCN1C(=O)S/C(=C\c2ccc3c(c2)OCO3)C1=O`: 3.55 µM [falling, full curve].

As to `Cc1ccn2c(NCc3ccc4c(c3)OCO4)c(-c3ccc(O)cc3)nc2c1`, under setting [1], the AC50 was 0.103 µM [falling, full curve, poor fit]. On to `C=CCN(C(=O)c1cccc(S(=O)(=O)N2CCN(C)CC2)c1)c1nc(-c2ccccc2)cs1`, for which the AC50 under setting [1] is 3.66 µM [rising, partial curve, poor fit]. On the same count and under the same terms, next, `Cc1ccsc1C(=O)NCCc1c[nH]c2ccccc12`: 7.08 µM [falling, partial curve]; `Clc1nc(CN2CCCCC2)nc2sc3c(c12)CCCC3`: 35.5 µM [falling, partial curve, poor fit]. On to `Nc1c(C(=O)N/N=C/c2cccnc2)oc2nc(-c3ccco3)cc(-c3ccco3)c12`, for which the AC50 under setting [1] was 2.24 µM [falling, full curve, poor fit] and the AC50 under setting [2] was 3.55 µM [rising, full curve]. Consider `Cc1nc(/C(N)=N/OC(=O)Cc2ccccc2)no1`, for which the AC50 under setting [1] was 8.91 µM [rising, partial curve].

Take `Cc1cc(C(F)F)n2nc(C(=O)Nc3cccc(S(=O)(=O)N4CCOCC4)c3)nc2n1`: the AC50 under setting [1] was 35.5 µM [rising, single point]. For the molecule `CCC1(C)Cc2nc3sc(C(=O)O)c(N)c3cc2CO1` (stereo unspecified), under setting [1], the AC50 was 4.11 µM [falling, full curve, poor fit]. `CC1=NN(c2ccccc2)C(=O)C1(C)C`: under setting [1], the AC50 is 10 µM [falling, partial curve, poor fit].

Turning to `c1ccc(CN(CC2=NCCN2)c2ccccc2)cc1`, the AC50 under setting [1] was 35.5 µM [falling, single point]. Regarding `CCCSc1nc2sc3c(c2c(=O)[nH]1)CC(C)(CC)OC3` (stereo unspecified), the AC50 under setting [1] is 35.5 µM [rising, single point].

With `Cc1ccc(C)c(NC(=O)C2C3C=CC(O3)C2C(=O)O)c1` (stereo unspecified), the AC50 under setting [1] was 10 µM [falling, partial curve]. Take `O=C(NCc1ccccc1)C(Cc1ccccc1)NS(=O)(=O)c1cccc2nsnc12` (stereo unspecified): under setting [1], the AC50 is 2.91 µM [rising, full curve, poor fit].

As to `O=C(NCC1CCCO1)c1sc(=S)n2c1[nH]c(=O)c1ccc(C(=O)N3CCCCC3)cc12` (stereo unspecified), under setting [1], the AC50 is 35.5 µM [rising, single point]. On the same count and under the same terms, to `CN(C)c1nc(Cl)nc(N(C#N)CCOc2ccccc2)n1` belongs 15.8 µM [falling, single point]. Turning to `CCn1c2ccccc2c2cc(/C=N/NC(=O)c3cc(O)cc(O)c3)ccc21`, the AC50 reads like this: under setting [1], 12.6 µM [falling, partial curve, poor fit]; under setting [2], 35.5 µM [rising, partial curve, poor fit].

Consider `O=C(O)CSC(C(=O)Nc1ccc(Br)cc1)c1ccccc1` (stereo unspecified), for which the AC50 under setting [1] is 11.2 µM [rising, partial curve]. On the same count and under the same terms, next, `O=C(CCCn1c(=S)[nH]c2ccccc2c1=O)N1CCN(c2cccc(Cl)c2)CC1`: 0.447 µM [falling, full curve, poor fit]; `CC(=O)Nc1ccc(NC(=O)CCSCCc2ccccn2)cc1`: 35.5 µM [rising, single point]; `COC(=O)c1ccc(COc2ccccc2/C=C(\C#N)C(=O)NC(C)C)cc1`: 2.31 µM [falling, full curve, poor fit].

For the molecule `O=C(O)c1ccc(-c2ccc(-c3ccccc3)cc2)s1`, the AC50 under setting [1] was 0.447 µM [falling, full curve]. The same measure, in the same setting: to `CCOc1ccccc1/C=N/Nc1nc(C)cc(=O)[nH]1` belongs 10 µM [falling, single point]. On the same count and under the same terms, to `CCn1c(=O)c2cc(C(=O)NCC(OC)OC)sc2c2ccccc21` belongs 10 µM [rising, partial curve, poor fit]; to `CNC(=O)C(=O)Nc1nc(C23CC4CC(CC(C4)C2)C3)cs1`, 7.08 µM [rising, partial curve, poor fit]; to `O=C(Nc1cccc2ccccc12)/C(=C/c1ccc([N+](=O)[O-])cc1)NC(=O)c1ccccc1`, 31.6 µM [falling, single point]. For the molecule `O=C(CS(=O)c1ccc(C(F)(F)F)cc1[N+](=O)[O-])Oc1ccc(Cl)cc1` (stereo unspecified), the AC50 under setting [1] was 11.6 µM [falling, partial curve, poor fit].

For the molecule `Cc1ccc(C(=O)OCC(=O)NCc2ccc(F)cc2)o1`, the AC50 under setting [1] is 0.146 µM [rising, full curve]. The same measure, in the same setting: to `CCCn1c(=O)c2c(C(F)(F)F)cc(-c3cccs3)nc2n(CCC)c1=O` belongs 29.1 µM [rising, single point]; to `Cc1ccc(NS(=O)(=O)c2cc(NC(=O)c3cc4c(s3)CCCC4)ccc2C)c(C)c1`, 9.2 µM [rising, partial curve, poor fit]; to `CC1CCc2sc(C(=O)OCC(=O)NC(N)=O)cc2C1` (stereo unspecified), 5.01 µM [rising, single point]. Same read-out and setting: to `Cc1cc(N)n(-c2nc(-c3cccnc3)nc3ccccc23)n1` belongs 11.2 µM [falling, partial curve, poor fit]. Same read-out and setting: to `CC(C)(C)OC(=O)N1CCC[C@H]1c1nnc(SCc2c(F)cccc2Cl)o1` belongs 3.16 µM [rising, partial curve, poor fit]. Take `COc1ccccc1NS(=O)(=O)c1cccc(N=C2N=C(N)c3ccccc32)c1`: under setting [1], the AC50 is 18.4 µM [falling, partial curve, poor fit]. Same read-out and setting: next, `COc1cc(/C=C2\SC(=S)N(NC(=O)c3cccnc3)C2=O)ccc1O`: 35.5 µM [rising, single point]; `Nc1ccc(-c2nnc(-c3ccccc3)o2)cc1`: 11.2 µM [falling, partial curve]; `COc1ccccc1C1=NN(C(=S)Nc2ccccc2)C(c2ccco2)C1` (stereo unspecified): 3.98 µM [falling, full curve, poor fit]. Regarding `O=C(Cc1cccs1)N/N=C/c1ccc(OCc2ccccc2)cc1`, the AC50 under setting [1] was 32.6 µM [rising, partial curve, poor fit].

With `Cc1c(C(=O)NC2CCCc3ccccc32)oc2ccccc12` (stereo unspecified), the AC50 under setting [1] was 4.61 µM [falling, single point]. Consider `Cc1[nH]c2ccc3ncccc3c2c1C`, for which the AC50 under setting [1] was 3.26 µM [rising, partial curve]. For the molecule `Nc1c(C(=O)Nc2ccc3c(c2)OCCO3)nnn1CCc1ccccc1`, the AC50 under setting [1] was 29.1 µM [falling, single point]. As for `O=C(Nc1ccccc1)Nc1snnc1C(=O)Nc1cccc(O)c1`, the AC50 under setting [1] is 0.562 µM [rising, full curve].

Regarding `Cc1[nH]c2ccccc2c1C(c1ccncc1)N1CCC(C)CC1` (stereo unspecified), the AC50 under setting [1] is 25.1 µM [falling, partial curve, poor fit].

As for `Cn1c(=O)oc2cc(S(=O)(=O)N3CCN(c4ccccc4F)CC3)ccc21`, under setting [1], the AC50 is 35.5 µM [falling, partial curve, poor fit]. Same read-out and setting: next, `COc1ccccc1N1C(=O)C=C(Sc2nc(C)cc(C)n2)C1=O`: 15.8 µM [falling, partial curve, poor fit]; `Cc1csc(NC(=O)CSc2nnc(-c3ccccn3)n2-c2ccc(C)c(C)c2)n1`: 20 µM [falling, single point]; `Nc1nc(-c2ccccn2)nc(N)c1Cc1c(F)cccc1Cl`: 2 µM [falling, partial curve, poor fit].

For `O=C(N/C(=C/c1ccccc1)C(=O)N1CCCCC1)c1ccc(Br)o1`, under setting [1], the AC50 is 6.31 µM [falling, partial curve, poor fit]. Same read-out and setting: to `O=C(Cc1ccc(Cl)c(Cl)c1)Nc1cccc(S(=O)(=O)N2CCOCC2)c1` belongs 35.5 µM [falling, single point]; to `Cc1c(C)c2cc(Cl)c(O)c(CN3CCCC(C)C3)c2oc1=O` (stereo unspecified), 20.6 µM [rising, single point].

For the molecule `CC(=O)c1cc2c(cc1NC(=O)C1CC1)OCO2`, the AC50 reads like this: under setting [1], 1.84 µM [falling, full curve, poor fit]; under setting [2], 25.9 µM [rising, partial curve, poor fit]. On to `Cc1ccc(OCCC(=O)N(Cc2ccccc2)c2c(N)n(Cc3ccccc3)c(=O)[nH]c2=O)cc1`, for which, under setting [1], the AC50 was 32.6 µM [falling, single point]. For `CC(c1ccccc1)N1CCn2c(nc3cc(NS(C)(=O)=O)ccc32)C1` (stereo unspecified), the AC50 under setting [1] was 4.47 µM [rising, partial curve, poor fit]. On to `CCNc1nnc(-c2ccccc2OC)s1`, for which, under setting [1], the AC50 is 3.55 µM [rising, partial curve, poor fit]. Consider `Cc1cccc(N2CCN(C(=O)c3ccncc3)CC2C)c1` (stereo unspecified), for which, under setting [1], the AC50 was 23.1 µM [falling, single point]. With `Cc1cc(C)c(NC(=O)c2ccc3c(c2)NC(=O)C(C)S3)c(C)c1` (stereo unspecified), the AC50 under setting [1] was 20.6 µM [falling, partial curve].

On to `Cc1ccc(/C=N/N(C)S(=O)(=O)c2ccc(C)cc2)cc1`, for which the AC50 under setting [1] was 7.08 µM [falling, partial curve, poor fit].

As to `Cc1cc(/C=C(\C#N)C(=O)NC2CC2)c(C)[nH]1`, the AC50 under setting [1] is 18.4 µM [falling, partial curve]. In the case of `O=C1Nc2cc(Cl)c(Cl)cc2N(O)N1c1cc(Cl)cc(Cl)c1`, the AC50 under setting [1] is 0.708 µM [falling, full curve, poor fit].

Turning to `CC(C)(C)C(=O)CSc1ncnc2c1cnn2Cc1ccccc1`, the AC50 under setting [1] is 35.5 µM [rising, single point].

On to `CCOC(=O)[C@H]1[C@H]2COc3ccc(Br)cc3[C@@H]2N2C(=O)c3cc(OC)c(OC)cc3NC(=O)[C@@]12C`, for which, under setting [1], the AC50 is 16.4 µM [falling, partial curve, poor fit]. Same read-out and setting: to `O=C(CN1CCN(S(=O)(=O)c2ccc(Cl)cc2)CC1)Nc1ccc(F)cc1F` belongs 15.8 µM [falling, partial curve, poor fit].
